## Screening data, single-dose tests

From ChEMBL document CHEMBL3988442, “University of Dundee, Small-Polar-MMV Screening Library” (2021).

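Growth of Mycobacterium tuberculosis over 3 days (7H9 medium with glucose and tyloxapol); the read-out is not stated. Concentration: 500 µM. The record gives no direction; compounds that gave an IC50 in retests scored well above the rest, so higher reads as more growth inhibition. Size under these conditions: about 18,000 compounds, about 1,400 of them at 50% or above in at least one test.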

Results are given as percent effect. The controls that fix the scale are not given in the record; negative values are as filed. This is an unselected part of the compounds tested.

SMILES,percent effect
CSCc1nc(CNC(=O)CNC2CC2)cs1,31.31
CN1CCC(NCCN(C)S(C)(=O)=O)CC1,12.83
OC1CCN(c2ccccn2)CC1,-2.135
CCN1CCCN(C(=O)c2ccc(N(C)C)nc2)CC1,1.388
CCN1CCN(C(=O)C(C)Oc2ccc(F)cc2)CC1 (centres unmarked),14.55
NC(=O)c1cc(OC2CCNCC2)ccn1,-2.223
Cc1cc(CN(C)S(=O)(=O)c2ncn(C)c2Cl)no1,2.702
Nc1nnc(CCCN2C(=O)c3ccccc3C2=O)s1,-4.847
CN(Cc1cnn(C)c1)C(=O)Cn1cc(Br)ccc1=O,4.528
COCCn1cncc1CNC(=O)C1(C)CCCCO1 (centres unmarked),-0.4107
Nc1ccnc(-c2ccc(CO)cc2)c1,12.12
CC(C)C(=O)NCCNCc1cccc(C#N)c1,-3.846
CCO[C@H]1CN(C(=O)c2ccccc2SC)C[C@@H]1O,-0.7078
CCC1c2ccsc2CCN1C(C)=O (centres unmarked),45.86
COc1ccc(CC2CCN2)cc1 (centres unmarked),79.99
CCS(=O)(=O)c1cc(Cl)cc(CN)c1,6.685
CC(C)OCc1nc(C(C)N)no1 (centres unmarked),11.18
CC(C)(C)CC(O)CN (centres unmarked),-3.227
CC(C)Cc1noc(-c2ccc(N(C)CCO)nc2)n1,69.77
Cc1ncccc1OCC(=O)N(C)C1CC1,-6.154
Cn1cc(NC(=O)C2CC(=O)Nc3ccccc32)cn1 (centres unmarked),-10.77
OCCN1CCN(Cc2cn3cc(Br)ccc3n2)CC1,20.3
O=C(Cc1n[nH]c(=O)c2ccccc12)N1CCC1,-7.139
O=C(NC1CC(=O)N(Cc2cccc(F)c2)C1)C1CC1 (centres unmarked),17.37
COC(=O)CNC(=O)C1CCCN1 (centres unmarked),-4.997
Cc1nc2ccc(NC(=O)C(C)(C)S(C)(=O)=O)cn2n1,8.809
CCC1CCCN(Cc2nc(-c3cccnc3)no2)C1 (centres unmarked),1.642
Cc1nn(C)c(C)c1CCC(=O)NC(CCO)C1CC1 (centres unmarked),-14.13
CCNS(=O)(=O)C1CCN(Cc2cn(C)nc2CC)C1 (centres unmarked),12.01
NCCOc1ccccc1OCCN,5.295
Cc1ccc(CN(C)C(=O)CO)c(C)c1,24.63
C/C=C/c1ccc(OCCN2CCNCC2)c(OC)c1,49.52
CNC(=O)C(C)(O)CN1Cc2ccccc2C1=O (centres unmarked),13.44
CCCC(CN)OC (centres unmarked),6.767
Cc1nc(CCNC(=O)c2ccc(=O)n(C)c2)sc1C,18.79
CCCN(CC(=O)NC)C(=O)c1cc(C)ccc1O,24.02
CCS(=O)(=O)NCCSc1nc2cc(F)c(F)cc2[nH]1,69.25
Cc1noc(C)c1CC(=O)N(C)CC1CCCCO1 (centres unmarked),10.65
CC(C)Cn1[nH]ccc1=NC(=O)Cn1cnc(C#N)n1,-1.645
NC1CCCOc2c(Cl)cccc21 (centres unmarked),24.65
COc1ccc(CC(=O)Nc2cnn(C)c2)cc1F,13.6
CCCc1n[nH]cc1C(=O)N1CC[C@](C)(O)C(C)(C)C1,3.476
N#Cc1cc(F)ccc1NC(=O)N1CCC(O)CC1,7.616
CN(C)CCC(O)c1ccccc1 (centres unmarked),22.33
Cc1nc2ccc(N)cn2n1,-21.92
O=c1c(C(F)(F)F)cccn1Cc1cccnc1,-2.428
NCCS(=O)(=O)NCc1ccc(F)cc1,10.63
COC(=O)c1cn(C)nc1C,-8.439
COc1cccc2c1OCC(CNS(C)(=O)=O)C2 (centres unmarked),14.65
Cn1cc(C(=O)NCc2ccccc2)cn1,40.77
Cc1ccc(CC(=O)N2CCN(CCO)CC2)cc1C,7.719
CNC(=O)CCN1C(=O)c2ccccc2C1=O,1.096
CC(C)c1ncc(C(=O)N2C[C@@H]3CCCN[C@@H]3C2)cn1,12.72
Cc1ccc(NC(=O)CCN2CCN(C)CC2)cc1C,31.93
CC1(C)CC(NC(=O)CC#N)CC(C)(C)N1,-11.76
CCOc1cccc(OCCCN2CCNCC2)c1,14.29
CCN(CC)C(=O)COc1ccc(C(C)=O)c(F)c1,29.89
COC(=O)C(C)SCc1noc(C2CC2)n1 (centres unmarked),49.2
COc1ccc(OCCN2CCC(C(N)=O)CC2)cc1,0.1591
CCOC(=O)c1cnc2ccnn2c1/C=C/N(C)C,-3.162
CN(C)c1ncccc1C(=O)OCCN1CCOC1=O,9.962
CN(CCN1CCCC1=O)C(=O)c1ccc(Br)cc1O,16.62
O[C@H]1CCN(CC(F)(F)F)C1,-16.25
O=C(NCCC(O)C(F)(F)F)c1c(O)cc(F)cc1F (centres unmarked),74.27
COC(=O)c1ccc(Cn2ccnn2)c(F)c1,36.99
COCCCNC(=O)c1ccn(-c2ccc(F)cc2)n1,57.55
O=C1CC(c2ccccc2)C(=O)N1 (centres unmarked),-0.2085
CCNCC(C)(O)c1ccccc1 (centres unmarked),7.891
CC(N)C1CCCOC1 (centres unmarked),0.7203
Cc1ccc(C(=O)N[C@@H]2CN(C)C[C@H]2CN(C)C)s1,22.96
COc1ccc(CN(C)C(=O)C2CC2)cc1F,66.26
Cc1ccc(C)c2c(=O)cc(CN3CCC(N)C3)[nH]c12 (centres unmarked),48.62
Cn1nccc1C(=O)N[C@@H]1COCC[C@@H]1OCC(N)=O,6.299
CCC(CO)N1CCN(c2nccnc2C#N)CC1 (centres unmarked),2.753
O=C(CN1C(=O)CC2(CCCCC2)C1=O)NC1CC1,29.97
Cc1cccc(CC(=O)NCC2CCNCC2)c1,1.16
CCn1ccc(CN2CC3(CCNCC3)OC2=O)n1,10.27
O=C(CN1CCC(O)CC1)N1CCCCCC1,16.37
N#CC1(CS(=O)(=O)N2CCN(CCO)CC2)CCC1,1.891
CN(C)c1ncc(CN2CCC(O)(CO)C2)cn1 (centres unmarked),5.748
COCCNC(=O)Cc1cc(OC)c(OC)c(OC)c1,-0.8236
Cc1noc(CN(C)CC2CCN(CC(C)O)CC2)n1 (centres unmarked),-13.66
COC(=O)C1CCN(C(=O)Cc2cccc(F)c2)CC1,50
CC(C)(C)Oc1cccc(CN)n1,1.46
COc1ccc(CC(=O)NCC(C)C)c(OC)c1,-10.69
CCCC(O)CNS(=O)(=O)c1cc(F)cc(F)c1 (centres unmarked),41.89

For reference, 9 entries once more:

| SMILES | percent effect |
|---|---|
| `NCCOc1ccccc1OCCN` | 5.295 |
| `CC(C)C(=O)NCCNCc1cccc(C#N)c1` | -3.846 |
| `Cc1ccc(C(=O)N[C@@H]2CN(C)C[C@H]2CN(C)C)s1` | 22.96 |
| `COC(=O)c1cn(C)nc1C` | -8.439 |
| `CCS(=O)(=O)NCCSc1nc2cc(F)c(F)cc2[nH]1` | 69.25 |
| `CCOC(=O)c1cnc2ccnn2c1/C=C/N(C)C` | -3.162 |
| `Cc1ccc(C)c2c(=O)cc(CN3CCC(N)C3)[nH]c12` (centres unmarked) | 48.62 |
| `CCNS(=O)(=O)C1CCN(Cc2cn(C)nc2CC)C1` (centres unmarked) | 12.01 |
| `Cc1ncccc1OCC(=O)N(C)C1CC1` | -6.154 |